This assay is described as follows: qHTS Assay for Lipid Storage Modulators in Drosophila S3 Cells.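 For cell number change: cells counted by Cell Tracker Red CMTPX staining in the red channel.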 As to conditions: BODIPY lipid droplet fluorescence, 18-24 h; for cell number change: measured here: cell count max response, cells fed with added oleic acid. An outline of the steps: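 Laser-scanning cytometry quantifies lipid droplet accumulation (500–530 nm total intensity; droplet/cell object ratio) in oleic acid-fed (400 uM added) Drosophila S3 cells treated with a concentration series. 20 uM Triacsin C defined 100% inhibition.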

Setting [1] is: measured here: cell number channel AC50, cells fed with added oleic acid.
Setting [2] is: measured here: lipid fluorescence (Fed channel) AC50, cells fed with added oleic acid.

15 molecules from PubChem BioAssay AID2685 (National Center for Advancing Translational Sciences (NCATS), 2010) can be followed below.

The list shows a part of the results. Further columns of the screen follow, without active or inactive calls. Most of these compounds were active or inconclusive in the main read-out, so they are no random draw. The note in brackets gives the kind of curve behind each potency; many fits are weak.

For `CCCNC(=S)Nc1ccc(Cl)cc1Cl`, the cell number change is -11.1%. Further, the AC50 under setting [1] is 103 nM [falling, full curve]. In addition, the AC50 under setting [2] is 1460 nM [falling, partial curve].

On to `CCN(CC(=O)NCc1cccs1)S(=O)(=O)c1ccc(C(C)C)cc1`, for which the cell number change was -12.1%. Besides, the AC50 under setting [2] was 920 nM [falling, single point].

For the molecule `CCN(CC)S(=O)(=O)c1ccc(N2CC(C(=O)NCc3ccc4c(c3)OCO4)CC2=O)cc1` (configuration not stated), the cell number change stood at 13.9%. For the same molecule, the AC50 under setting [2] is 29100 nM [falling, single point].

For the molecule `CC(C)CNC(=S)N(CCN(C)C)Cc1cc2cc3c(cc2[nH]c1=O)OCCO3`, the cell number change came to 3.41%. For the same molecule, the AC50 under setting [2] is 13000 nM [rising, partial curve].

With `O=C1[C@@H]2Cc3c([nH]c4ccccc34)CN2C(=O)CN1CCO`, the cell number change is 95.1%. The AC50 under setting [1] was 3260 nM [rising, full curve].

As for `CN(C)CCCN(C(=O)COc1ccccc1)c1nc2cc3c(cc2s1)OCCO3`, the cell number change is 5.89%. Also, under setting [2], the AC50 is 6510 nM [rising, single point].

`CCN(CC(=O)NCc1cccs1)C(=O)c1ccc(S(=O)(=O)Nc2ccccc2C)cc1`: the cell number change was 0.263%. Under setting [2], the AC50 was 326 nM [rising, full curve, poor fit].

In the case of `O=c1[nH]n(CC2COC3(CCCCC3)O2)c(=O)c2ccccc12` (configuration not stated), the AC50 under setting [1] is 146 nM [rising, full curve, poor fit].

Turning to `COc1ccc(C(=O)SC2=NCCS2)cc1OC`, the cell number change was -20.7%. The AC50 under setting [1] was 4.11 nM [falling, full curve, poor fit]. The AC50 under setting [2] is 51.7 nM [falling, full curve, poor fit].

For the molecule `Cc1cccc(C)c1NC(=O)CNC(=O)c1cccc(S(=O)(=O)NCc2cccs2)c1`, the cell number change was -33.6%. Besides, under setting [1], the AC50 was 32600 nM [falling, single point]. In addition, under setting [2], the AC50 is 29100 nM [falling, single point].

For `C=C1C[C@@]23CCC4[C@@](C)(CCC[C@@]4(C)C(=O)O)C2CC[C@]1(O)C3` (some centres not stated), the cell number change is 13.7%. In addition, the AC50 under setting [1] is 103 nM [falling, single point]. For the same molecule, the concentration at half-maximal activity (AC50) under setting [2] was 20600 nM [rising, partial curve, poor fit].

In the case of `Cc1ccc(Cn2ccc(NC(=O)c3cc(-c4ccccc4)on3)n2)cc1`, the cell number change was found to be 3.65%. Moreover, the AC50 under setting [2] is 2590 nM [rising, partial curve].

On to `CC(=O)C1=C(c2ccccc2)NC(=O)NC1c1ccccc1OCC(=O)Nc1ccccc1` (configuration not stated), for which the concentration at half-maximal activity (AC50) under setting [1] is 6510 nM [rising, single point].

Take `Cc1nn2c(N3CCOCC3)cc(C(C)(C)C)nc2c1-c1ccccc1`: the cell number change is -22.2%. Also, the AC50 under setting [2] is 580 nM [rising, single point].

On to `O=C(NCNC(=O)c1ccccc1)c1ccccc1`, for which the cell number change stood at 43.6%. In addition, the AC50 under setting [1] is 29100 nM [rising, single point].
